Laboratory results as given in article PMC6478693.

Chains of the proteins cited; added tags and fusions are not shown. Lines headed by an entry give the natural chain unless they say otherwise; changes in a name come on top.
UniProt P15056: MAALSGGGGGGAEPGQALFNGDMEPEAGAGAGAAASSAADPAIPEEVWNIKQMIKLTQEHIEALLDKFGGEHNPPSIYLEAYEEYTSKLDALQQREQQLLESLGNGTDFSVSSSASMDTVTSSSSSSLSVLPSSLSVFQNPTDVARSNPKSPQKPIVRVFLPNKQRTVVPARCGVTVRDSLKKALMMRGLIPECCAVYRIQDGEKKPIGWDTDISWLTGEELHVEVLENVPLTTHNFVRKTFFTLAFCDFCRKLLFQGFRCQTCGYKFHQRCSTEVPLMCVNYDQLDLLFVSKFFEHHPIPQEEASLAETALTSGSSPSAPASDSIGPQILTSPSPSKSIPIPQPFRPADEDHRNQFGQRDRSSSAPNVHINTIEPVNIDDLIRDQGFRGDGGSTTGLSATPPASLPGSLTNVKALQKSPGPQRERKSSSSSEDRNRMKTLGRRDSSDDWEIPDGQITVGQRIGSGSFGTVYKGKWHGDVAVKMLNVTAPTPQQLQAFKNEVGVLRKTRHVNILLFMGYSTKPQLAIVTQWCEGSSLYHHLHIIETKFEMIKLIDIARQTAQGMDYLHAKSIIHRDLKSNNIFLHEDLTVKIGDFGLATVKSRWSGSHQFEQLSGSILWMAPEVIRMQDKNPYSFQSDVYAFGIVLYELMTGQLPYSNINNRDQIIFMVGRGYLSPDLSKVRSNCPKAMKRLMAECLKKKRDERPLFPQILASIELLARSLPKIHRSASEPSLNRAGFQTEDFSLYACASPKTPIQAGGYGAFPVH
UniProt Q8C863: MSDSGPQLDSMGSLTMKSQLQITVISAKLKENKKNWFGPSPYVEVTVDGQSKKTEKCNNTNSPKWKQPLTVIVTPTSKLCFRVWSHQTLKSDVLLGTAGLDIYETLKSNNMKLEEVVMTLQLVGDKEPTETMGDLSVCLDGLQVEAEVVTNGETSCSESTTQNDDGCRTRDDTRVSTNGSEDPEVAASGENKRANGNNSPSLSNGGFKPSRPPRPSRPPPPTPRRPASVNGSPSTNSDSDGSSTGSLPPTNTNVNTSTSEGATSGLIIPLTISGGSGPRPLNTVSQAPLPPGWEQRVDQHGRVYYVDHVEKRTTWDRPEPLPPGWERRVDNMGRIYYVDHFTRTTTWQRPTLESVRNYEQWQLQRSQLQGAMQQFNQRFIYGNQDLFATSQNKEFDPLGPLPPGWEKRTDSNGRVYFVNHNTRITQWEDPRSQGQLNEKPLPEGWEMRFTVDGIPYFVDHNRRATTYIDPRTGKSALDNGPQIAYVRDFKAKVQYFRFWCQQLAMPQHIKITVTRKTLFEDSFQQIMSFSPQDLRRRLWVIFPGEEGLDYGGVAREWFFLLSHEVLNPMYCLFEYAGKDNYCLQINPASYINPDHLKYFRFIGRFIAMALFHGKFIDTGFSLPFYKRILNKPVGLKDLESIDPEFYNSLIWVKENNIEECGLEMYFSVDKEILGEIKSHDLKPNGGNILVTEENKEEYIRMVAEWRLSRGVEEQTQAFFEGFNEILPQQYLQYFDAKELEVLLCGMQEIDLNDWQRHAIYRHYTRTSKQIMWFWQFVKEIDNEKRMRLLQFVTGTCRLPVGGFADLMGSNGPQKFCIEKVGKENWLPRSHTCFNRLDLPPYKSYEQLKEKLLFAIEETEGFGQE

Legend:
Assay in all cases: co-IP; 293T cells transfected with HA-ITCH and Flag-RAF or Flag-BRAF constructs; 10 µM MG132 for 12 h before harvest; lysis in EBC buffer, washes in NETN buffer
[1] = biological target: Flag-BRAF mutated in the P631/F634 motif (UniProt P15056)
[2] = biological target: Flag-BRAF mutated in the P655 motif (UniProt P15056)
[3] = biological target: Flag-BRAF mutated in the P490/P492 motif (UniProt P15056)
[4] = biological target: Flag-BRAF mutated in the P705/P708 motif (UniProt P15056)
[5] = biological target: Flag-BRAF mutated in the P731 motif (UniProt P15056)

Measured: binding

HA-ITCH (from UniProt Q8C863 1-864) (enzyme)
binds: [1] | [2] | [3] | [4] | [5]

Results are given in words; binding and its absence hold for the method and conditions named. In cells and extracts the contact can be indirect. Binding can be weak; no strength is given.
